From article PMC5443798, “Functional characterization of the meiosis-specific DNA double-strand break inducing factor SPO-11 from C. elegans”
Residue numbers refer to the chain shown, from its start. For at least one entry, the source does not settle the construct or the ends of the probe. For some of these results: A negative result means that nothing was seen under these conditions. Tags and fusion partners may be left off the protein sequences shown. For some of these results: Weaker means in comparison with the reference protein, sequence or condition of that experiment. For some of these results: At least one verdict was read from the data and is not stated in words by the source.

Assays:
[1] = target: T1, SPO-11 E202A (Caenorhabditis elegans) (UniProt Q22236); experiment: EMSA; details: Mg2+ has no effect; EMSA: 42.5 mM Tris-HCl pH 7.5, 115 mM KCl, 1 mM DTT, 0.1 mg/ml BSA, 3% glycerol, 0.15 mM EDTA, 20 C, 30 min, 300 nM DNA (10 nM plasmid), agarose gel; recombinant protein
T1 sequence (looked up, limits assumed): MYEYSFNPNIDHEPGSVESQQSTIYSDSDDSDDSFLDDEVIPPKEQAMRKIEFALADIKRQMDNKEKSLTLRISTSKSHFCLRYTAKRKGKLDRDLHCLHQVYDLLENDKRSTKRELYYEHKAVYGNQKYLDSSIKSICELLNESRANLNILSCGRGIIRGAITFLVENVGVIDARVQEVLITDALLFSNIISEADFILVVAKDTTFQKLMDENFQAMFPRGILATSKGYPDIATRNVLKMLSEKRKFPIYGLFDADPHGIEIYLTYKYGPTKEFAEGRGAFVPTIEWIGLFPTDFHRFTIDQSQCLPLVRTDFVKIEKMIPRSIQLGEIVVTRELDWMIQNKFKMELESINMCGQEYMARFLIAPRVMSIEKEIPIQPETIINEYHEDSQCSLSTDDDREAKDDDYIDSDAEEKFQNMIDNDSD

[2] = target: T2, SPO-11 (Caenorhabditis elegans) (UniProt Q22236); experiment: EMSA; details: EMSA: 42.5 mM Tris-HCl pH 7.5, 115 mM KCl, 1 mM DTT, 0.1 mg/ml BSA, 3% glycerol, 0.15 mM EDTA, 20 C, 300 nM DNA (10 nM plasmid), agarose gel, recombinant protein
T2 sequence (looked up, limits assumed): T1 sequence (looked up, limits assumed) with A202E

[3] = target: T3, SPO-11 E202A/D255A (Caenorhabditis elegans) (UniProt Q22236); experiment: EMSA; details: Mg2+ has no effect; EMSA: 42.5 mM Tris-HCl pH 7.5, 115 mM KCl, 1 mM DTT, 0.1 mg/ml BSA, 3% glycerol, 0.15 mM EDTA, 20 C, 30 min, 300 nM DNA (10 nM plasmid), agarose gel; recombinant protein
T3 sequence (looked up, limits assumed): T1 sequence (looked up, limits assumed) with D255A

[4] = target: T2, SPO-11 (Caenorhabditis elegans); experiment: competition with a labelled probe; details: 1-10x unlabeled vs N4; EMSA: 42.5 mM Tris-HCl pH 7.5, 115 mM KCl, 1 mM DTT, 0.1 mg/ml BSA, 3% glycerol, 0.15 mM EDTA, 20 C, 30 min, 300 nM DNA (10 nM plasmid), agarose gel; recombinant protein; single-stranded DNA
[5] = minimal binding at 4.8 uM SPO-11, 30 min, single-stranded DNA

Row | Sequence | binding result [1] | binding result ([2]; SPO-11 pretreated above 30 C for 30 min) | binding result ([2]; with Mg2+, little or no effect of Mg2+, 30 min) | binding result [3] | binding result [2, 5] | binding result [4]
1 | AATATGATAGATAATGATAGTGATGAGGGACGTGGATCTCTTCTTACCTGCGGAGACGTCGAGGAGAACCCAGGACCAGGGGTACCTATGGCCTCCTCCG (double strand) [100 bp dsDNA] | binds | no binding | binds | binds | – | –
2 | TTTTTTTTTTTTTTTTTTTTTTTTTTTTTTTTTTTTTTTTTTTTTTTTTTTTTTTTTTTTTTTTTTTTTTTTTTTTTTTT [80-mer poly-dT] | – | – | – | – | binds more weakly | binds more weakly
3 | TAAATAAGATAAGGATAATACAAAATAAGTAAATGAATAAACAGAGAAAATAAAGTAAAGGATATAAAAAATGAACATAA [80-mer ssDNA bottom strand (Oligo 2)] | – | – | – | – | binds more weakly | binds more weakly
4 | TTATGTTCATTTTTTATATCCTTTACTTTATTTTCTCTGTTTATTCATTTACTTATTTTGTATTATCCTTATCTTATTTA [80-mer ssDNA top strand (Oligo 1)] | – | – | – | – | binds more weakly | binds more weakly
